{"sequences": {"note": "Chains of the proteins cited; added tags and fusions are not shown.", "UniProt P60953": "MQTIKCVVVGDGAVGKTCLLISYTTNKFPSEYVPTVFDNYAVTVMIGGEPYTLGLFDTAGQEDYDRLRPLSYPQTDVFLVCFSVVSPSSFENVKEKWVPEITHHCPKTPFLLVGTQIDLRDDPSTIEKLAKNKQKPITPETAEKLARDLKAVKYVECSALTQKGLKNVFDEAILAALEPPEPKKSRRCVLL", "UniProt Q8TEW0": "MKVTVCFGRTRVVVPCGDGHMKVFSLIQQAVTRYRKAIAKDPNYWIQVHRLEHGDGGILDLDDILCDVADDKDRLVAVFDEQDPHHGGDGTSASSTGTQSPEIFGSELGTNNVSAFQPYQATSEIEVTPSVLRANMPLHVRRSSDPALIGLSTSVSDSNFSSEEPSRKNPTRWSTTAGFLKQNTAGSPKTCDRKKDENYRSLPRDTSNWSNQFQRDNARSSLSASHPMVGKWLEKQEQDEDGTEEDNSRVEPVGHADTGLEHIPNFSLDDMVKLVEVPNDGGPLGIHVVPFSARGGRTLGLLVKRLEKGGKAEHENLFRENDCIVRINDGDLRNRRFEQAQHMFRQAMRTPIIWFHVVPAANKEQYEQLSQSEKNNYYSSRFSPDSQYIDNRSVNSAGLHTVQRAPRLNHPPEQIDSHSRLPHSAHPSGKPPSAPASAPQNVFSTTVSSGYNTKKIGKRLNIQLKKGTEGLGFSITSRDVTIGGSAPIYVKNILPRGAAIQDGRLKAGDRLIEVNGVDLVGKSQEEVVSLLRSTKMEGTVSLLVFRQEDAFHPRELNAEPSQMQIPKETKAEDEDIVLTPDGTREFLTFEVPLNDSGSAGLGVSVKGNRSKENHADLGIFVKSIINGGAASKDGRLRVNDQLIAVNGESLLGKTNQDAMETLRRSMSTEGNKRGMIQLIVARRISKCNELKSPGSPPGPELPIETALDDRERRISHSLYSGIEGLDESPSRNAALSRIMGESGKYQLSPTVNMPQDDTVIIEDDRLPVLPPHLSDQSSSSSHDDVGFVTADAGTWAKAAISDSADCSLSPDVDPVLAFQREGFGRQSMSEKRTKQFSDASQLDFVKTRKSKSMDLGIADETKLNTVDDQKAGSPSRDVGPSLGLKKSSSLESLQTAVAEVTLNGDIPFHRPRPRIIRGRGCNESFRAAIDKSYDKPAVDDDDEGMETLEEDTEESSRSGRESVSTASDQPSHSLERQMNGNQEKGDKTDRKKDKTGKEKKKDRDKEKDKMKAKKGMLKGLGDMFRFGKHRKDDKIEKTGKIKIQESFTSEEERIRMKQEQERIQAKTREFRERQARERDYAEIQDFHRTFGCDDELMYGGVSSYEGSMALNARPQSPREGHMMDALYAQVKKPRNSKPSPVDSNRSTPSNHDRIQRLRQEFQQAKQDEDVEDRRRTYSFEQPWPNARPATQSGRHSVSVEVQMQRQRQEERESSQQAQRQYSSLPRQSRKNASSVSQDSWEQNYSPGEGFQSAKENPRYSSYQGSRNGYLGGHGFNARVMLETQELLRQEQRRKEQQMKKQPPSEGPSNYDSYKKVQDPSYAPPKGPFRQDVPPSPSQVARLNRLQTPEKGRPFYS", "UniProt Q86YZ3": "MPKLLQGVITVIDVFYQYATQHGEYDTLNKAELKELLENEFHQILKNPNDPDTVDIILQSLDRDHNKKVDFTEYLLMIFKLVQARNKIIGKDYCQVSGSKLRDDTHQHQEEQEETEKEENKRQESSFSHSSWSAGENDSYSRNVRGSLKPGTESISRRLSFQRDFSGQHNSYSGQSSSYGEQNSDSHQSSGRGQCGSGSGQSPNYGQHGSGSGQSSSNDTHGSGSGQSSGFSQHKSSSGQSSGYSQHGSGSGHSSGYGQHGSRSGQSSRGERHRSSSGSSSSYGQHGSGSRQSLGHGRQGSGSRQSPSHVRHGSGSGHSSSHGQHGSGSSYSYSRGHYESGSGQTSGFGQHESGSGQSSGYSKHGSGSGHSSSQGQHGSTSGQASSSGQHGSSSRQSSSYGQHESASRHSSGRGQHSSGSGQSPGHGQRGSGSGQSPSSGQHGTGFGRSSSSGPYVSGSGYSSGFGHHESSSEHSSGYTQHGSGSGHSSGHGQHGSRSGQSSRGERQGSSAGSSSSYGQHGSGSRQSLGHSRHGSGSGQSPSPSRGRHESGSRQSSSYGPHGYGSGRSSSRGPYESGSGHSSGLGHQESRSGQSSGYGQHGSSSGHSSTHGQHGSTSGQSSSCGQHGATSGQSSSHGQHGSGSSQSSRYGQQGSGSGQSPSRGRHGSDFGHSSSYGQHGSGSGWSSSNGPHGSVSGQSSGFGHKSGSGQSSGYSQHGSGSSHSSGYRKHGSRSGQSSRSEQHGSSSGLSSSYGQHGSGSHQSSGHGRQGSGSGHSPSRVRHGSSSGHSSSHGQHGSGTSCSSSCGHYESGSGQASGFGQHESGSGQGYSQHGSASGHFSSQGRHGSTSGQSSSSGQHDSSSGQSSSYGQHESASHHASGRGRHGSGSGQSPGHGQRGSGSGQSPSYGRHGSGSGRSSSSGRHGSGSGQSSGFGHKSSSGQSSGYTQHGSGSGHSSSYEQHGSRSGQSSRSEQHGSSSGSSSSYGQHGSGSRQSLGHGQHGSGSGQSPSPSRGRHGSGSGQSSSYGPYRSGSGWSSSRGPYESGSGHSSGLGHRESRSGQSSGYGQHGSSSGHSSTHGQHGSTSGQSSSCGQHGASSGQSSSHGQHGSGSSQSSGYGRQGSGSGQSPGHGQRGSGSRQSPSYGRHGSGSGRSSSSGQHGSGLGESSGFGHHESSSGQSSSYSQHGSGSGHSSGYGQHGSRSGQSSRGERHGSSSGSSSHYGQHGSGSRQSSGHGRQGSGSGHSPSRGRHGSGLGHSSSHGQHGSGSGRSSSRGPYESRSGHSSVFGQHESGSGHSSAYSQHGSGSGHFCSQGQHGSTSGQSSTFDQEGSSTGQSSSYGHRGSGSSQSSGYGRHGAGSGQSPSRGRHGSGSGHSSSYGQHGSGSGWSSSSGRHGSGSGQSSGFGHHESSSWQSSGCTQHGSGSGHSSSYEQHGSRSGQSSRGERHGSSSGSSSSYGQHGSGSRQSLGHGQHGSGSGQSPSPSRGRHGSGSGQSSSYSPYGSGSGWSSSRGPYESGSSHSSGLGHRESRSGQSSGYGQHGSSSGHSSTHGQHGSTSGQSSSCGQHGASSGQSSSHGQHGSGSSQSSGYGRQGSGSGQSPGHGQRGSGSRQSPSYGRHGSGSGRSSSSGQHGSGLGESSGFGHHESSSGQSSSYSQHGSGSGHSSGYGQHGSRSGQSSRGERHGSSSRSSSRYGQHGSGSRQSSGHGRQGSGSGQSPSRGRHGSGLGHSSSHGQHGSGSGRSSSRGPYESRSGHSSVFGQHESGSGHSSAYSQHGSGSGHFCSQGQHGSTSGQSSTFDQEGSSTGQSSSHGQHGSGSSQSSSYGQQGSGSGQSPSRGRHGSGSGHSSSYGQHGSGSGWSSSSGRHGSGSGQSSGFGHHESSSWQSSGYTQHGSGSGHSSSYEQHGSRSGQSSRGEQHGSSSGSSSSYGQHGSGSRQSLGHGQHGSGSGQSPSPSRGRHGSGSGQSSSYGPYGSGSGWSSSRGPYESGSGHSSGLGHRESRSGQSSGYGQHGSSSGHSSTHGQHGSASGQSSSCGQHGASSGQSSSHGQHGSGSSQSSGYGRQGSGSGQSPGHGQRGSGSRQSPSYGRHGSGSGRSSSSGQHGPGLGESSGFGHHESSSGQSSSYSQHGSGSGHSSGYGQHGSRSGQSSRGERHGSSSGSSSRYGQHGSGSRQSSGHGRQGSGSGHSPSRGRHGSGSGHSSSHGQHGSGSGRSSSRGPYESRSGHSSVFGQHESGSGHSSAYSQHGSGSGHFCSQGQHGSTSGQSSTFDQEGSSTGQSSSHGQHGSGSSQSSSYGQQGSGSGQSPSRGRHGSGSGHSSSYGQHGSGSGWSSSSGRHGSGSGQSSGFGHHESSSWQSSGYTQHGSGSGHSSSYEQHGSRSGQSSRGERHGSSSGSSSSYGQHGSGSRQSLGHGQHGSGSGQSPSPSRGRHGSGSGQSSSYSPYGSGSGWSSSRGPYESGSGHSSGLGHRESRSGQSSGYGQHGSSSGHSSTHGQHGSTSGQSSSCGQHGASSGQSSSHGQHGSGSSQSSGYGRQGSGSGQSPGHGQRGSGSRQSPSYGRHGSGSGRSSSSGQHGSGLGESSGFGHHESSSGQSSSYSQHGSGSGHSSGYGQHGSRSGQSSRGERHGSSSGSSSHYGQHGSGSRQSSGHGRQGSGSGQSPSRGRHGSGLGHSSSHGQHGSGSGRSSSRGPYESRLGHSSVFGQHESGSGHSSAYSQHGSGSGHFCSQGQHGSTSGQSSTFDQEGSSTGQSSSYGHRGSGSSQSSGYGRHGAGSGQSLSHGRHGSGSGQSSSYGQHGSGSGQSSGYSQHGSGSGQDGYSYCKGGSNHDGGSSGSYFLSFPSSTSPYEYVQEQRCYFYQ"}, "source": "paper PMC8610992", "molecules": {"B1": {"name": "LLGL1 (protein, UniProt Q15334 1-1064)", "chain": "MMKFRFRRQGADPQREKLKQELFAFNKTVEHGFPNQPSALAFDPELRIMAIGTRSGAVKIYGAPGVEFTGLHRDAATVTQMHFLTGQGRLLSLLDDSSLHLWEIVHHNGCAHLEEALSFQLPSRPGFDGASAPLSLTRVTVVLLVAASDIAALGTEGSSVFFLDVTTLTLLEGQTLAPGEVLRSVPDDYRCGKALGPVESLQGHLRDPTKILIGYSRGLLVIWNQASQCVDHIFLGNQQLESLCWGRDSSTVVSSHSDGSYAVWSVDAGSFPTLQPTVATTPYGPFPCKAINKILWRNCESGGHFIIFSGGMPRASYGDRHCVSVLRAETLVTLDFTSRIIDFFTVHSTRPEDEFDDPQALAVLLEEELVVLDLQTPGWPAVPAPYLAPLHSSAITCSAHVASVPAKLWARIVSAGEQQSPQPVSSALSWPITGGRNLAQEPSQRGLLLTGHEDGTVRFWDASGVALRPLYKLSTAGLFQTDCEHADSLAQAAEDDWPPFRKVGCFDPYSDDPRLGVQKVALCKYTAQMVVAGTAGQVLVLELSDVPVEQAVSVAIIDLLQDREGFTWKGHERLSPRTGPLPWPAGFQPRVLVQCLPPAAVTAVTLHTEWSLVAFGTSHGFGLFDYQRKSPVLARCTLHPNDSLAMEGPLSRVKSLKKSLRQSFRRIRKSRVSGKKRAANASSKLQEANAQLAEQACPHDVEMTPVQRRIEPRSADDSLSGVVRCLYFADTFLRDGAHHGPTMWAGTNSGSVFAYALEVPAAAVGGEKRPEQAVEAVLGKEVQLMHRAPVVAIAVLDGRGRPLPEPYEASRDLAQAPDMQGGHAVLIASEEQFKVFTLPKVSAKTKFKLTAHEGCRVRKVALATFASVACEDYAETCLACLTNLGDVHVFSVPGLRPQVHYSCIRKEDISGIASCVFTRHGQGFYLISPSEFERFSLSARNITEPLCSLDINWPRDATQASYRIRESPKLSQANGTPSILLAPQSLDGSPDPAHSMGPDTPEPPEAALSPMSIDSATSADTTLDTTGDVTVEDVKDFLGSSEESEKNLRNLAEDEAHACAILIK"}, "B2": {"name": "TP53BP2/ASPP2 (protein, UniProt Q13625 1-1128)", "chain": "MMPMFLTVYLSNNEQHFTEVPVTPETICRDVVDLCKEPGESDCHLAEVWCGSERPVADNERMFDVLQRFGSQRNEVRFFLRHERPPGRDIVSGPRSQDPSLKRNGVKVPGEYRRKENGVNSPRMDLTLAELQEMASRQQQQIEAQQQLLATKEQRLKFLKQQDQRQQQQVAEQEKLKRLKEIAENQEAKLKKVRALKGHVEQKRLSNGKLVEEIEQMNNLFQQKQRELVLAVSKVEELTRQLEMLKNGRIDSHHDNQSAVAELDRLYKELQLRNKLNQEQNAKLQQQRECLNKRNSEVAVMDKRVNELRDRLWKKKAALQQKENLPVSSDGNLPQQAASAPSRVAAVGPYIQSSTMPRMPSRPELLVKPALPDGSLVIQASEGPMKIQTLPNMRSGAASQTKGSKIHPVGPDWSPSNADLFPSQGSASVPQSTGNALDQVDDGEVPLREKEKKVRPFSMFDAVDQSNAPPSFGTLRKNQSSEDILRDAQVANKNVAKVPPPVPTKPKQINLPYFGQTNQPPSDIKPDGSSQQLSTVVPSMGTKPKPAGQQPRVLLSPSIPSVGQDQTLSPGSKQESPPAAAVRPFTPQPSKDTLLPPFRKPQTVAASSIYSMYTQQQAPGKNFQQAVQSALTKTHTRGPHFSSVYGKPVIAAAQNQQQHPENIYSNSQGKPGSPEPETEPVSSVQENHENERIPRPLSPTKLLPFLSNPYRNQSDADLEALRKKLSNAPRPLKKRSSITEPEGPNGPNIQKLLYQRTTIAAMETISVPSYPSKSASVTASSESPVEIQNPYLHVEPEKEVVSLVPESLSPEDVGNASTENSDMPAPSPGLDYEPEGVPDNSPNLQNNPEEPNPEAPHVLDVYLEEYPPYPPPPYPSGEPEGPGEDSVSMRPPEITGQVSLPPGKRTNLRKTGSERIAHGMRVKFNPLALLLDSSLEGEFDLVQRIIYEVDDPSLPNDEGITALHNAVCAGHTEIVKFLVQFGVNVNAADSDGWTPLHCAASCNNVQVCKFLVESGAAVFAMTYSDMQTAADKCEEMEEGYTQCSQFLYGVQEKMGIMNKGVIYALWDYEPQNDDELPMKEGDCMTIIHREDEDEIEWWWARLNDKEGYVPRNLLGLYPRIKPRQRSLA"}, "B3": {"name": "RALB (protein, UniProt P11234 1-206)", "chain": "MAANKSKGQSSLALHKVIMVGSGGVGKSALTLQFMYDEFVEDYEPTKADSYRKKVVLDGEEVQIDILDTAGQEDYAAIRDNYFRSGEGFLLVFSITEHESFTATAEFREQILRVKAEEDKIPLLVVGNKSDLEERRQVPVEEARSKAEEWGVQYVETSAKTRANVDKVFFDLMREIRTKKMSENKDKNGKKSSKNKKSFKERCCLL"}, "B4": {"name": "PRKCZ (protein, UniProt Q05513 1-592)", "chain": "MPSRTGPKMEGSGGRVRLKAHYGGDIFITSVDAATTFEELCEEVRDMCRLHQQHPLTLKWVDSEGDPCTVSSQMELEEAFRLARQCRDEGLIIHVFPSTPEQPGLPCPGEDKSIYRRGARRWRKLYRANGHLFQAKRFNRRAYCGQCSERIWGLARQGYRCINCKLLVHKRCHGLVPLTCRKHMDSVMPSQEPPVDDKNEDADLPSEETDGIAYISSSRKHDSIKDDSEDLKPVIDGMDGIKISQGLGLQDFDLIRVIGRGSYAKVLLVRLKKNDQIYAMKVVKKELVHDDEDIDWVQTEKHVFEQASSNPFLVGLHSCFQTTSRLFLVIEYVNGGDLMFHMQRQRKLPEEHARFYAAEICIALNFLHERGIIYRDLKLDNVLLDADGHIKLTDYGMCKEGLGPGDTTSTFCGTPNYIAPEILRGEEYGFSVDWWALGVLMFEMMAGRSPFDIITDNPDMNTEDYLFQVILEKPIRIPRFLSVKASHVLKGFLNKDPKERLGCRPQTGFSDIKSHAFFRSIDWDLLEKKQALPPFQPQITDDYGLDNFDTQFTSEPVQLTPDDEDAIKRIDQSEFEGFEYINPLLLSTEESV"}, "B5": {"name": "PTPN14 (protein, UniProt Q15678 1-1187)", "chain": "MPFGLKLRRTRRYNVLSKNCFVTRIRLLDSNVIECTLSVESTGQECLEAVAQRLELRETHYFGLWFLSKSQQARWVELEKPLKKHLDKFANEPLLFFGVMFYVPNVSWLQQEATRYQYYLQVKKDVLEGRLRCTLDQVIRLAGLAVQADFGDYNQFDSQDFLREYVLFPMDLALEEAVLEELTQKVAQEHKAHSGILPAEAELMYINEVERLDGFGQEIFPVKDNHGNCVHLGIFFMGIFVRNRIGRQAVIYRWNDMGNITHNKSTILVELINKEETALFHTDDIENAKYISRLFATRHKFYKQNKICTEQSNSPPPIRRQPTWSRSSLPRQQPYILPPVHVQCGEHYSETHTSQDSIFHGNEEALYCNSHNSLDLNYLNGTVTNGSVCSVHSVNSLNCSQSFIQASPVSSNLSIPGSDIMRADYIPSHRHSAIIVPSYRPTPDYETVMRQMKRGILHTDSQSQSLRNLNIINTHAYNQPEDLVYSQPEMRERHPYTVPYGPQGVYSNKLVSPSDQRNPKNNVVPSKPGASAISHTVSTPELANMQLQGSHNYSTAHMLKNYLFRPPPPYPRPRPATSTPDLASHRHKYVSGSSPDLVTRKVQLSVKTFQEDSSPVVHQSLQEVSEPLTATKHHGTVNKRHSLEVMNSMVRGMEAMTLKSLHLPMARRNTLREQGPPEEGSGSHEVPQLPQYHHKKTFSDATMLIHSSESEEEEEEAPESVPQIPMLREKMEYSAQLQAALARIPNKPPPEYPGPRKSVSNGALRQDQASLPPAMARARVLRHGPAKAISMSRTDPPAVNGASLGPSISEPDLTSVKERVKKEPVKERPVSEMFSLEDSIIEREMMIRNLEKQKMAGLEAQKRPLMLAALNGLSVARVSGREENRVDATRVPMDERFRTLKKKLEEGMVFTEYEQIPKKKANGIFSTAALPENAERSRIREVVPYEENRVELIPTKENNTGYINASHIKVVVGGAEWHYIATQGPLPHTCHDFWQMVWEQGVNVIAMVTAEEEGGRTKSHRYWPKLGSKHSSATYGKFKVTTKFRTDSVCYATTGLKVKHLLSGQERTVWHLQYTDWPDHGCPEDVQGFLSYLEEIQSVRRHTNSMLEGTKNRHPPIVVHCSAGVGRTGVLILSELMIYCLEHNEKVEVPMMLRLLREQRMFMIQTIAQYKFVYQVLIQFLQNSRLI"}}, "key": {"BirA*-PAR6B [1]": {"molecular_target": "T1, BirA*-PAR6B (UniProt Q9BYG5)", "T1 sequence": "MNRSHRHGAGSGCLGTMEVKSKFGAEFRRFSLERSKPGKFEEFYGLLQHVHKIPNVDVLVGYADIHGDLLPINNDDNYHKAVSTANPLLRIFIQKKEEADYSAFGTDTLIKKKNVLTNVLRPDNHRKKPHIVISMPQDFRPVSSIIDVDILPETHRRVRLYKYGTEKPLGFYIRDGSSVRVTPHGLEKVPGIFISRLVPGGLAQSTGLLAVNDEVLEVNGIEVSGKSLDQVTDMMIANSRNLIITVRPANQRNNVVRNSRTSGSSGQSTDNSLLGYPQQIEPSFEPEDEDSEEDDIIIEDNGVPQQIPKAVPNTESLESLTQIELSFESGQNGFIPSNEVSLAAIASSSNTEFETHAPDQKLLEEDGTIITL", "test": "proximity labelling; BioID: BirA*-PAR6B in Caco-2 cells, 3D suspension cysts and 2D on plastic, 50 uM biotin for 48 h, RIPA lysis, streptavidin beads, mass spectrometry; control BirA*-mCherry; triplicates"}, "BirA*-PAR6B [2]": {"molecular_target": "T1, BirA*-PAR6B", "test": "proximity labelling; BioID: streptavidin pull-down from 2D and 3D Caco-2 cells expressing BirA*-PAR6B or BirA*-mCherry, immunoblot"}}, "note": "No constants are given. Whether binding was seen depends on the method and setting. In cells and extracts the contact can be indirect. Here binding means that the protein was enriched with, or labelled near, the bait; the list need not be complete.", "data": [{"molecule": "CDC42 (from UniProt P60953 1-191)", "values": [{"measurement": "binding", "setting": "BirA*-PAR6B [1]", "result": "binds"}]}, {"molecule": "PARD3 (from UniProt Q8TEW0 1-1356)", "values": [{"measurement": "binding", "setting": "BirA*-PAR6B [2]", "result": "binds"}, {"measurement": "binding", "setting": "BirA*-PAR6B [1]", "result": "binds"}]}, {"molecule": "SQSTM1/p62 (from UniProt Q13501 1-440)", "values": [{"measurement": "binding", "setting": "BirA*-PAR6B [1]", "result": "binds"}]}, {"molecule": "HRNR (Hornerin) (from UniProt Q86YZ3 1-2850)", "values": [{"measurement": "binding", "setting": "BirA*-PAR6B [1]", "result": "binds"}]}, {"molecule": "B1", "values": [{"measurement": "binding", "setting": "BirA*-PAR6B [1]", "result": "binds"}]}, {"molecule": "B2", "values": [{"measurement": "binding", "setting": "BirA*-PAR6B [1]", "result": "binds"}]}, {"molecule": "B3", "values": [{"measurement": "binding", "setting": "BirA*-PAR6B [1]", "result": "binds"}]}, {"molecule": "B4", "values": [{"measurement": "binding", "setting": "BirA*-PAR6B [2]", "result": "binds"}, {"measurement": "binding", "setting": "BirA*-PAR6B [1]", "result": "binds"}]}, {"molecule": "B5", "values": [{"measurement": "binding", "setting": "BirA*-PAR6B [1]", "result": "binds"}]}]}
